The values below are quoted from earlier work in patent US10457654B2 (GENENTECH, INC., priority 2017, dated 2019).

For this data set the following is noted: administered topically (Lidoderm patch); NDA 20-612; cited from earlier work.

For `CCN(CC)CC(=O)Nc1c(C)cccc1C` [lidocaine], the plasma concentrations result is recorded as “about 1 μM”.
